Laboratory results from patent US20250025478A1.
No constants are given. Whether binding was seen depends on the method and setting. In cells and extracts the contact can be indirect. Some entries that bind do so weakly or less than the wild type.

The chains behind the UniProt entries cited, without tags or fusion partners. Where a name states a change or a piece, a line headed by the entry shows the natural chain unless it says otherwise.
UniProt Q63HN8: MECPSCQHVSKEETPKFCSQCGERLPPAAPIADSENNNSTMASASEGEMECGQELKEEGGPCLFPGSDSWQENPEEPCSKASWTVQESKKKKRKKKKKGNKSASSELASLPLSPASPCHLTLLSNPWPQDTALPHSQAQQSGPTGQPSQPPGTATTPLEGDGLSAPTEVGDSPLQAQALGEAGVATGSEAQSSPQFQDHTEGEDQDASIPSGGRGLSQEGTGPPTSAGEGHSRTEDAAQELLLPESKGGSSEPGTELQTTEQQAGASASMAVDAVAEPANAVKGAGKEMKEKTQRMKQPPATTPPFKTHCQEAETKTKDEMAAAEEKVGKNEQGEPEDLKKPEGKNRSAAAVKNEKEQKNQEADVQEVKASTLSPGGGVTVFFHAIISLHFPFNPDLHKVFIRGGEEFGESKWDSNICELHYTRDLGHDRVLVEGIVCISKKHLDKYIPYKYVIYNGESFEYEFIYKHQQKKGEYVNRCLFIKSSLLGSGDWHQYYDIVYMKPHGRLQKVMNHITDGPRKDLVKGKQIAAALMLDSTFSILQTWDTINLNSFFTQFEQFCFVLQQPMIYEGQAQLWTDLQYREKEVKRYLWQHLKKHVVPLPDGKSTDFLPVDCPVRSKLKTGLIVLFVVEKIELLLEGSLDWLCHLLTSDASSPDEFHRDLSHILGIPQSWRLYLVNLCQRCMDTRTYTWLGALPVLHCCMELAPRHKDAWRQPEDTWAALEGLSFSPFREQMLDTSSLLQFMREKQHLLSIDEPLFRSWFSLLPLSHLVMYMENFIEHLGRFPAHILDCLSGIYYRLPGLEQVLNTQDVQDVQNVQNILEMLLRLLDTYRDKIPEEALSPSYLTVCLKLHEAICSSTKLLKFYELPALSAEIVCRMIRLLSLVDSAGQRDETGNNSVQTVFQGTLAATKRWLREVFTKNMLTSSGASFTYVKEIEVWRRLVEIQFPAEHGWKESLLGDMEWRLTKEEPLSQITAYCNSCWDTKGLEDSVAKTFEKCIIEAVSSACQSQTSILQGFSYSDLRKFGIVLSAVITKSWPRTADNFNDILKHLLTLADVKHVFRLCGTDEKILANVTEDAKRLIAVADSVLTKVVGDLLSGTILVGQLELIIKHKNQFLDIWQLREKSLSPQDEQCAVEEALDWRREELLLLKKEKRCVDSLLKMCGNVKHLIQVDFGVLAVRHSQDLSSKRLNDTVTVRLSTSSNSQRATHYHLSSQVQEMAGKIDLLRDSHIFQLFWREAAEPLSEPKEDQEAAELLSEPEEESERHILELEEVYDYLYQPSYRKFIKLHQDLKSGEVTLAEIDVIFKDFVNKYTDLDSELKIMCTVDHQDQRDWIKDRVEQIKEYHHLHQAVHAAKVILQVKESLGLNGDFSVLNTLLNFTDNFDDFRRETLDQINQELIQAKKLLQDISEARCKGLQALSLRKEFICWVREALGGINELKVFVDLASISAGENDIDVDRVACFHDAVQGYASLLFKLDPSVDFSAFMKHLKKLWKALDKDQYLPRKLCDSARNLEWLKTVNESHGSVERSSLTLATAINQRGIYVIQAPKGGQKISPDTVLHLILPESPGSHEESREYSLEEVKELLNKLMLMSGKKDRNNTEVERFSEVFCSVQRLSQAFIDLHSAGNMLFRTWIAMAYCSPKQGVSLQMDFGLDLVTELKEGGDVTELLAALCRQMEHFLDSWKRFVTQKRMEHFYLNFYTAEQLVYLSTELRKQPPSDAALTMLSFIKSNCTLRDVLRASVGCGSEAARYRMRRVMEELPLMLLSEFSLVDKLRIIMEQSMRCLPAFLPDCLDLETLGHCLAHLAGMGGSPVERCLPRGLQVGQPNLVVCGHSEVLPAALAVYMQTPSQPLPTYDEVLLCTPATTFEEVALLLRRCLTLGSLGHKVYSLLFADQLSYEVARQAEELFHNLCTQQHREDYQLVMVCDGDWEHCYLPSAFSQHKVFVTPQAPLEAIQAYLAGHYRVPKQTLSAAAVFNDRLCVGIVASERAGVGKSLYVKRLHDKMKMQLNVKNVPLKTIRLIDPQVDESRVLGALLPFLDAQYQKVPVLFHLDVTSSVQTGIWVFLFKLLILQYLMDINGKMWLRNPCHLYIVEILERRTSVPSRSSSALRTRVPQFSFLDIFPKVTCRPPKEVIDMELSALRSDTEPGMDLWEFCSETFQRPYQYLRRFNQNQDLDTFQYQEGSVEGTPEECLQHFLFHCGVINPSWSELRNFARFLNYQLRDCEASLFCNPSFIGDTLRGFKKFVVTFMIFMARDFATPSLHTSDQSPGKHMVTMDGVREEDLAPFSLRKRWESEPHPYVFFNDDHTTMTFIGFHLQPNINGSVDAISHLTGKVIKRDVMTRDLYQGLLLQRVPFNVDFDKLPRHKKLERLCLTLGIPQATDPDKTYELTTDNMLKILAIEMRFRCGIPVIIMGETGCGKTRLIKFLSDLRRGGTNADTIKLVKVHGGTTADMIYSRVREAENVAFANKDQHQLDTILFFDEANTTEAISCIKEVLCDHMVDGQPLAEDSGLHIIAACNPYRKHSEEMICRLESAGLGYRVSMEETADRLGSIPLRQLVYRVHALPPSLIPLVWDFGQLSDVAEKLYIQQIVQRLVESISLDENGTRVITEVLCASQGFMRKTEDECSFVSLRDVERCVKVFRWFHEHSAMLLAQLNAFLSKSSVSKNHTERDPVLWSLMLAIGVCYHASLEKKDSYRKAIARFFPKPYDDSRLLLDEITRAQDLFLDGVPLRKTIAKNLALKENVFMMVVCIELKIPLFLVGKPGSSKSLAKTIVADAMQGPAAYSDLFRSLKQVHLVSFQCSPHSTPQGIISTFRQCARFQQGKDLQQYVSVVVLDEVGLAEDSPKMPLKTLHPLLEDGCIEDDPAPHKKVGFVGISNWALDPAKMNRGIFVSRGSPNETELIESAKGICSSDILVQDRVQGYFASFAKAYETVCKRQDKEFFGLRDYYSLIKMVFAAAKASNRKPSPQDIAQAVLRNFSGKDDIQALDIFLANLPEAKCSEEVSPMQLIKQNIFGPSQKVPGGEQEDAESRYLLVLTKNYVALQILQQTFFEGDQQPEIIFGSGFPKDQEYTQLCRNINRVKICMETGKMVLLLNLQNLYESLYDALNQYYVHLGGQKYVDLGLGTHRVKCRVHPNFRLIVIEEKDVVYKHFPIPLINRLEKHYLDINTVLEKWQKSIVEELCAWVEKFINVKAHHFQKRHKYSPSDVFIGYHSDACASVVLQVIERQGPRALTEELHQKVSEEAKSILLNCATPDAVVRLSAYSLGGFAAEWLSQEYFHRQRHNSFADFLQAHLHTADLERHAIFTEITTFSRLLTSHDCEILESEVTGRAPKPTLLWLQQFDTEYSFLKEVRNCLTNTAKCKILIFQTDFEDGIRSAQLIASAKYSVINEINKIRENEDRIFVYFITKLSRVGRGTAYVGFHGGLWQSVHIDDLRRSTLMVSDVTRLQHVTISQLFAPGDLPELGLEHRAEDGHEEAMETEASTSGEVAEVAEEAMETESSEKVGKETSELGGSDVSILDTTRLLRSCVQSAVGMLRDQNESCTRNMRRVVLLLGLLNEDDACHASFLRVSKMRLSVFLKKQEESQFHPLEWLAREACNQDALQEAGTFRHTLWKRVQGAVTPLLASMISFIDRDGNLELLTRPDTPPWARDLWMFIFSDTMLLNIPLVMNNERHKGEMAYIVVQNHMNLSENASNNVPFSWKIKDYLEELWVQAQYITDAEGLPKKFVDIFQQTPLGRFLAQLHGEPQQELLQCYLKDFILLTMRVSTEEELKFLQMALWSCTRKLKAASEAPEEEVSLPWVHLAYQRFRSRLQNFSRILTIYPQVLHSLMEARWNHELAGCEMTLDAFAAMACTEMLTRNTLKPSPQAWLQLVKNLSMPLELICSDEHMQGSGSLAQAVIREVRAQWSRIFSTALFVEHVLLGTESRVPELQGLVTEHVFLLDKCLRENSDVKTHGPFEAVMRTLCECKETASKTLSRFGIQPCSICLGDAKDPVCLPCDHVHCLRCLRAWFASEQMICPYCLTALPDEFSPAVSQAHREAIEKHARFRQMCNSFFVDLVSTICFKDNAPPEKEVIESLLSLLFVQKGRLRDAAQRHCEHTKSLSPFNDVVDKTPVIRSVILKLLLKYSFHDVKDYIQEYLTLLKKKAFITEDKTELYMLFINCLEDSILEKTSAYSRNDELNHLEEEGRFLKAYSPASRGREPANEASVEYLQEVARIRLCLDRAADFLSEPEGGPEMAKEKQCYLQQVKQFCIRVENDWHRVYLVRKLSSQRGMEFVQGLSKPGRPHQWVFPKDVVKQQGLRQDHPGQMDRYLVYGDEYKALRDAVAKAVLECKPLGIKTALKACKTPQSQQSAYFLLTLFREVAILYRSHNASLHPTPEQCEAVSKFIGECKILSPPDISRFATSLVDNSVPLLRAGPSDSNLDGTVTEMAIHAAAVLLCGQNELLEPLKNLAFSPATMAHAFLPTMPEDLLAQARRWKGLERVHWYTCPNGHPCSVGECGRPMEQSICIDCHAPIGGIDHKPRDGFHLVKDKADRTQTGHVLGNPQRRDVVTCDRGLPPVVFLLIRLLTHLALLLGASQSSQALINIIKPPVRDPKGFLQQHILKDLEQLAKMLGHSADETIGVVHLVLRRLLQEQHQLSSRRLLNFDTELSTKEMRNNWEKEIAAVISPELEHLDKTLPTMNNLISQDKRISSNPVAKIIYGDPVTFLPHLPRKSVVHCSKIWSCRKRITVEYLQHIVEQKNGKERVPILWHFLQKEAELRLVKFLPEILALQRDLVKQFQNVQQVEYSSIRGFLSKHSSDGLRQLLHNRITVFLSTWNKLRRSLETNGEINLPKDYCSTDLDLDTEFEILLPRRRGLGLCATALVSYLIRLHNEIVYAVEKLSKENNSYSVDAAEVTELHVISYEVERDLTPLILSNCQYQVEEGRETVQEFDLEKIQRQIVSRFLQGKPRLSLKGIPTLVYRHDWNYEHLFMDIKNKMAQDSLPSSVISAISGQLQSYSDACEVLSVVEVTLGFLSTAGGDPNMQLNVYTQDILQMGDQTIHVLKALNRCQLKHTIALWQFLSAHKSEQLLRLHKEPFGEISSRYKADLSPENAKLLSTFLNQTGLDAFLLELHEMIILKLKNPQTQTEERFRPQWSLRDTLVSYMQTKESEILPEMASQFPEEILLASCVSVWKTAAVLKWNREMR

Key:
[1] = molecular target: GFP-RNF213 (Homo sapiens (Human)) (UniProt Q63HN8); assay: anti-FLAG co-immunoprecipitation/immunoblot of GFP-RNF213, BT474 RNF213-KO-PTPN1-KD cells (FIG. 1C)
[2] = molecular target: GFP-RNF213 (Homo sapiens (Human)) (UniProt Q63HN8); assay: anti-FLAG co-immunoprecipitation/immunoblot of GFP-RNF213, AU565 RNF213-KO-PTPN1-KD cells (FIG. 7E)
[3] = molecular target: GFP-RNF213 (Homo sapiens (Human)) (UniProt Q63HN8); assay: anti-FLAG co-immunoprecipitation/immunoblot (oligomerization)

| binding [1] | binding [2] | binding [3] | Substance |
| --- | --- | --- | --- |
| binds | binds |  | 3×-FLAG-RNF213 (from UniProt Q63HN8 1-5207) (enzyme) |
|  |  | binds | 3×-FLAG-RNF213^Y1275F (from UniProt Q63HN8 1-5207) (enzyme) |
